At least one structure is not confirmed: it was looked up by name or label, or the drawing left a doubt.
What was measured:
[1] = system: HER2+ breast cancer cells (CRL2351); test: Co-culture cancer cell killing assay with CAR macrophages (Incucyte); format: cell-based, human
human macrophages = test: mCherry expression in transfected macrophages with IFN-γ, sunitinib or ABCE1 (Incucyte); format: cell-based
Procedure: The transfection efficiency, persistence of expression, and intensity of expression of the fluorescent reporter gene mCherry in human monocytes or macrophages was evaluated using real time live microscopy on the Incucyte (Sartorius) for the indicated period of time.
Macrophages were treated with 0-10 µM sunitinib (an RNAse-L inhibitor) for 2 hours prior to mRNA electroporation or transfection. The level of expression and persistence of expression of the encoded transgene was assessed using methods described above.
Human macrophages were transfected with mCherry mRNA comprising m6AGCap1 and PsU or N1mPsU modifications and were then cultured for one day with different doses of IFN-γ. mCherry expression was monitored on an Incucyte live imaging microscope.
In order to determine whether an RNaseL inhibitor could rescue IFN-γ-induced instability of transfected mRNA, human macrophages were treated with 1 µM sunitinib (an RNaseL inhibitor) two hours prior to the transfection of mCherry mRNA comprising m6AGCap1 and PsU modifications. Transfected cells were then cultured for one day with different dosages of IFN-γ. mCherry expression was monitored on an Incucyte live imaging microscope.
The effect of another RNaseL inhibitor (RLI or ABCE1) was also tested to further validate the concept. […]

SMILES: CCN(CC)CCNC(=O)c1c(C)[nH]c(/C=C2\C(=O)Nc3ccc(F)cc32)c1C [sunitinib]
- cancer killing ability ([1]; 48 hour CRL2351 breast cancer cell killing assay): improved cancer killing ability
- cancer cell killing ([1]; CAR macrophage pre-treated with 1 nM): higher cancer cell killing
- IFN-γ-induced instability of transfected mRNA (mCherry expression) (human macrophages; 1 µM two hours prior to transfection): rescued the IFN-γ-induced degradation of mRNA
- mCherry expression with ABCE1 co-transfection plus pre-treatment (human macrophages; pre-treating on top of ABCE1 co-transfection): further enhanced this effect
